{"source": "PubChem BioAssay AID1259308 (NCATS, 2017)", "purpose": "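Candidate targets for better recombinant protein yield in mammalian cells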 (primary screen)", "cells": "human HEK293 embryonic kidney cells stably expressing firefly luciferase (HEK-CMV-Luc2-Hygro)", "knock-down reagent": "single siRNA against human genes, 0.8 pmol siRNA per well", "timing": "72 h", "detection": "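Reporter luminescence and viable-cell signal on separate replicate plates, given as percent of non-targeting control and median/MAD z-scores, plus per-cell luciferase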", "scale": "total luciferase, z-score and total luciferase, % of control: higher = more reporter protein produced", "hit rule": "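An siRNA counts as active if its total luciferase robust z-score exceeds 3; genes with two or more such siRNAs out of three were retested with fresh siRNAs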", "meaning of the calls": "active = raised luciferase; inactive = no rise", "note": "The deposit covers about 59,000 reagents; shown is an unselected part. Of all reagents, about 1,510 (2.6%) are marked active. 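Calls use total luciferase alone and ignore viability, so some active siRNAs may act by altering cell number.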 Reagents against one gene are numbered here. Further read-outs or replicates are left out here."}
{"gene": "GTPBP4 (GeneID 23560)", "siRNA no.": 1, "total luciferase, z-score": -1.4, "total luciferase, % of control": 54.1, "outcome": "inactive"}
{"gene": "GTPBP4 (GeneID 23560)", "siRNA no.": 2, "total luciferase, z-score": -2.04, "total luciferase, % of control": 41.3, "outcome": "inactive"}
{"gene": "GTPBP4 (GeneID 23560)", "siRNA no.": 3, "total luciferase, z-score": -1.96, "total luciferase, % of control": 43, "outcome": "inactive"}
{"gene": "MATR3 (GeneID 9782)", "siRNA no.": 1, "total luciferase, z-score": -1.01, "total luciferase, % of control": 61.8, "outcome": "inactive"}
{"gene": "MATR3 (GeneID 9782)", "siRNA no.": 2, "total luciferase, z-score": -0.27, "total luciferase, % of control": 76.5, "outcome": "inactive"}
{"gene": "MATR3 (GeneID 9782)", "siRNA no.": 3, "total luciferase, z-score": 0.107, "total luciferase, % of control": 84, "outcome": "inactive"}
{"gene": "NCF2 (GeneID 4688)", "siRNA no.": 1, "total luciferase, z-score": 0.665, "total luciferase, % of control": 95.1, "outcome": "inactive"}
{"gene": "NCF2 (GeneID 4688)", "siRNA no.": 2, "total luciferase, z-score": 0.61, "total luciferase, % of control": 94, "outcome": "inactive"}
{"gene": "NCF2 (GeneID 4688)", "siRNA no.": 3, "total luciferase, z-score": 0.6, "total luciferase, % of control": 93.8, "outcome": "inactive"}
{"gene": "CETN1 (GeneID 1068)", "siRNA no.": 1, "total luciferase, z-score": 0.163, "total luciferase, % of control": 85.1, "outcome": "inactive"}
{"gene": "CETN1 (GeneID 1068)", "siRNA no.": 2, "total luciferase, z-score": -0.456, "total luciferase, % of control": 72.8, "outcome": "inactive"}
{"gene": "CETN1 (GeneID 1068)", "siRNA no.": 3, "total luciferase, z-score": -0.56, "total luciferase, % of control": 70.7, "outcome": "inactive"}

An excerpt from above, reduced to “total luciferase, % of control”.
MATR3 (GeneID 9782) #3	84
NCF2 (GeneID 4688) #1	95.1
NCF2 (GeneID 4688) #2	94
NCF2 (GeneID 4688) #3	93.8

Next records:
{"gene": "LOC646388 (GeneID 646388)", "siRNA no.": 1, "total luciferase, z-score": -0.883, "total luciferase, % of control": 64.3, "outcome": "inactive"}
{"gene": "LOC646388 (GeneID 646388)", "siRNA no.": 2, "total luciferase, z-score": -0.544, "total luciferase, % of control": 71.1, "outcome": "inactive"}
{"gene": "LOC646388 (GeneID 646388)", "siRNA no.": 3, "total luciferase, z-score": -0.676, "total luciferase, % of control": 68.4, "outcome": "inactive"}
{"gene": "LYPD1 (GeneID 116372)", "siRNA no.": 1, "total luciferase, z-score": 0.175, "total luciferase, % of control": 85.4, "outcome": "inactive"}
{"gene": "LYPD1 (GeneID 116372)", "siRNA no.": 2, "total luciferase, z-score": 0.0869, "total luciferase, % of control": 83.6, "outcome": "inactive"}
{"gene": "LYPD1 (GeneID 116372)", "siRNA no.": 3, "total luciferase, z-score": 2.02, "total luciferase, % of control": 122, "outcome": "inactive"}
{"gene": "CEP68 (GeneID 23177)", "siRNA no.": 1, "total luciferase, z-score": 0.726, "total luciferase, % of control": 96.3, "outcome": "inactive"}
{"gene": "CEP68 (GeneID 23177)", "siRNA no.": 2, "total luciferase, z-score": 0.414, "total luciferase, % of control": 90.1, "outcome": "inactive"}
{"gene": "CEP68 (GeneID 23177)", "siRNA no.": 3, "total luciferase, z-score": -0.632, "total luciferase, % of control": 69.3, "outcome": "inactive"}
{"gene": "IGSF11 (GeneID 152404)", "siRNA no.": 1, "total luciferase, z-score": -0.00193, "total luciferase, % of control": 81.8, "outcome": "inactive"}
{"gene": "IGSF11 (GeneID 152404)", "siRNA no.": 2, "total luciferase, z-score": -0.00462, "total luciferase, % of control": 81.8, "outcome": "inactive"}
{"gene": "IGSF11 (GeneID 152404)", "siRNA no.": 3, "total luciferase, z-score": 1.38, "total luciferase, % of control": 109, "outcome": "inactive"}
{"gene": "ORAI1 (GeneID 84876)", "siRNA no.": 1, "total luciferase, z-score": -0.237, "total luciferase, % of control": 77.2, "outcome": "inactive"}
{"gene": "ORAI1 (GeneID 84876)", "siRNA no.": 2, "total luciferase, z-score": 0.905, "total luciferase, % of control": 99.9, "outcome": "inactive"}
{"gene": "ORAI1 (GeneID 84876)", "siRNA no.": 3, "total luciferase, z-score": -0.0429, "total luciferase, % of control": 81, "outcome": "inactive"}
{"gene": "LGR5 (GeneID 8549)", "siRNA no.": 1, "total luciferase, z-score": 1.54, "total luciferase, % of control": 113, "outcome": "inactive"}
{"gene": "LGR5 (GeneID 8549)", "siRNA no.": 2, "total luciferase, z-score": -1.06, "total luciferase, % of control": 60.9, "outcome": "inactive"}
{"gene": "LGR5 (GeneID 8549)", "siRNA no.": 3, "total luciferase, z-score": 0.347, "total luciferase, % of control": 88.8, "outcome": "inactive"}
{"gene": "DCSTAMP (GeneID 81501)", "siRNA no.": 1, "total luciferase, z-score": -0.133, "total luciferase, % of control": 79.2, "outcome": "inactive"}
{"gene": "DCSTAMP (GeneID 81501)", "siRNA no.": 2, "total luciferase, z-score": 0.225, "total luciferase, % of control": 86.4, "outcome": "inactive"}
{"gene": "DCSTAMP (GeneID 81501)", "siRNA no.": 3, "total luciferase, z-score": -0.437, "total luciferase, % of control": 73.2, "outcome": "inactive"}
